Test [1] has as its target T1, HA-tagged Claudin-2 mutant lacking the PDZ-binding motif (mouse) (mouse) (UniProt O88552).
T1 sequence: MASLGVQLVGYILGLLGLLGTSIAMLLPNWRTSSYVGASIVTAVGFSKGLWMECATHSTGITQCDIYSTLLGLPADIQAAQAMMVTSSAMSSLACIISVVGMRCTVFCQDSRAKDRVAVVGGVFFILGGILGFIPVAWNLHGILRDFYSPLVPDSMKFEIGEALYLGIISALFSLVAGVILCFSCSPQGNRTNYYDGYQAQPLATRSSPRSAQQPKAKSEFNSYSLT
Briefly: affinity purification with mass spectrometry; anti-HA immunoprecipitation from 2776 cells expressing HA-tagged wild-type Claudin-2 or the ΔPDZ BD mutant; silver staining; mass spectrometry of excised gel pieces.

Amino acid sequences for entries named in this document (tags omitted).
UniProt Q9QZQ1: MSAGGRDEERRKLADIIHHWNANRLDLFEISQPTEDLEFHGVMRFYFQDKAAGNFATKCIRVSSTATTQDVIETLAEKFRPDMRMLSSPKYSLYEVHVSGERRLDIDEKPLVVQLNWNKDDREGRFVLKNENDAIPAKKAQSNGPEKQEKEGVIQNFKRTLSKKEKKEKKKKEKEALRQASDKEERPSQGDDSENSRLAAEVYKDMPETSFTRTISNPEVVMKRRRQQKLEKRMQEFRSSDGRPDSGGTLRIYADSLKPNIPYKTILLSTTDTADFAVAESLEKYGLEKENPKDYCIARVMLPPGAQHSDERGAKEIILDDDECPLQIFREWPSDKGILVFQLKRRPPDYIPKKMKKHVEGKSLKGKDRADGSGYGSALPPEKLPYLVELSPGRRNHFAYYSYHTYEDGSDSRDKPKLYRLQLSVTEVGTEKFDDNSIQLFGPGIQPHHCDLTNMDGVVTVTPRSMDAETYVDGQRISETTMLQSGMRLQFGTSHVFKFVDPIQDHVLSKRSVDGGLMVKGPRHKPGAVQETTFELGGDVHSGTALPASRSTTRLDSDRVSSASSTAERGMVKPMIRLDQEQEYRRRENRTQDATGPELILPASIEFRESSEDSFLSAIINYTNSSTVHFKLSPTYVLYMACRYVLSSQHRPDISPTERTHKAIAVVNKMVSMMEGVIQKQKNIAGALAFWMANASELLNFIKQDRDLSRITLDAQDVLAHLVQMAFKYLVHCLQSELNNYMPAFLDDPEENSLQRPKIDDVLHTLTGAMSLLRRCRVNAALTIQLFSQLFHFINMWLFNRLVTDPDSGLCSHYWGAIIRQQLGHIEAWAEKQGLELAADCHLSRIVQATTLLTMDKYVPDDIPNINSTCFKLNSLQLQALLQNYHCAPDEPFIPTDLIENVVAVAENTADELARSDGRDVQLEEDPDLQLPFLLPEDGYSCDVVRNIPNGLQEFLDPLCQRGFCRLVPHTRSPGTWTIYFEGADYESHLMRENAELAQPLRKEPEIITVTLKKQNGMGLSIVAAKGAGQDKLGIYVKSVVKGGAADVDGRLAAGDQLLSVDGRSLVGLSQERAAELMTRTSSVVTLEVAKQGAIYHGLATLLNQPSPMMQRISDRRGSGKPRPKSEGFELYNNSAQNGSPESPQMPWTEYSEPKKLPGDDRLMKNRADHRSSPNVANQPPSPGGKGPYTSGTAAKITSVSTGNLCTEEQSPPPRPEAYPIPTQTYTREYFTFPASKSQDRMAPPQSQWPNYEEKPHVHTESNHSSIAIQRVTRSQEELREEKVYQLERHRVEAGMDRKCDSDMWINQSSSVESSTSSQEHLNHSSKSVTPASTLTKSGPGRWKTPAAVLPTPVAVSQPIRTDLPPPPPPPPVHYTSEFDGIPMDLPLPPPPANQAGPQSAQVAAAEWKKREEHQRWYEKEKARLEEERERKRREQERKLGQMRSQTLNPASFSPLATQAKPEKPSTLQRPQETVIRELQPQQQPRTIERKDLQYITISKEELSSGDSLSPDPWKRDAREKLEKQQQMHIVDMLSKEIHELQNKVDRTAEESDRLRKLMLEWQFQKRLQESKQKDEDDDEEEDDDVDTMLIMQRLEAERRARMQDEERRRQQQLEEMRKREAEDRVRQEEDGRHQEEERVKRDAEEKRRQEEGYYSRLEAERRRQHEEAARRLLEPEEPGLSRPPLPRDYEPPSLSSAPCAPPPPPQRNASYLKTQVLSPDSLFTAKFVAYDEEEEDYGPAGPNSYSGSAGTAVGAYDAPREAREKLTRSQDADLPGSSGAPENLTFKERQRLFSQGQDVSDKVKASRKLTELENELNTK
UniProt Q3TJD7: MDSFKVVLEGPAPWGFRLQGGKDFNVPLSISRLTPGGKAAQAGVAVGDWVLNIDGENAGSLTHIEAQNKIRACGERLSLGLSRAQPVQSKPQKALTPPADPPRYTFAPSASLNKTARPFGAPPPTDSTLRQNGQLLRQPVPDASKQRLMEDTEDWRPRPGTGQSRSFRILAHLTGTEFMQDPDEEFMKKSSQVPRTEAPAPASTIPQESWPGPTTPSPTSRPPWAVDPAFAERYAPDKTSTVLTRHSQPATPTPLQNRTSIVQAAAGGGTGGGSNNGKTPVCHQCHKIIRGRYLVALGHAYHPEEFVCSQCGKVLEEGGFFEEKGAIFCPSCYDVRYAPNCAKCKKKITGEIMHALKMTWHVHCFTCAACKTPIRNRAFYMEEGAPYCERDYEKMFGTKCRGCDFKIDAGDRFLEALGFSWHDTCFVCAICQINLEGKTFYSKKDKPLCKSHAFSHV
UniProt Q9EQZ7: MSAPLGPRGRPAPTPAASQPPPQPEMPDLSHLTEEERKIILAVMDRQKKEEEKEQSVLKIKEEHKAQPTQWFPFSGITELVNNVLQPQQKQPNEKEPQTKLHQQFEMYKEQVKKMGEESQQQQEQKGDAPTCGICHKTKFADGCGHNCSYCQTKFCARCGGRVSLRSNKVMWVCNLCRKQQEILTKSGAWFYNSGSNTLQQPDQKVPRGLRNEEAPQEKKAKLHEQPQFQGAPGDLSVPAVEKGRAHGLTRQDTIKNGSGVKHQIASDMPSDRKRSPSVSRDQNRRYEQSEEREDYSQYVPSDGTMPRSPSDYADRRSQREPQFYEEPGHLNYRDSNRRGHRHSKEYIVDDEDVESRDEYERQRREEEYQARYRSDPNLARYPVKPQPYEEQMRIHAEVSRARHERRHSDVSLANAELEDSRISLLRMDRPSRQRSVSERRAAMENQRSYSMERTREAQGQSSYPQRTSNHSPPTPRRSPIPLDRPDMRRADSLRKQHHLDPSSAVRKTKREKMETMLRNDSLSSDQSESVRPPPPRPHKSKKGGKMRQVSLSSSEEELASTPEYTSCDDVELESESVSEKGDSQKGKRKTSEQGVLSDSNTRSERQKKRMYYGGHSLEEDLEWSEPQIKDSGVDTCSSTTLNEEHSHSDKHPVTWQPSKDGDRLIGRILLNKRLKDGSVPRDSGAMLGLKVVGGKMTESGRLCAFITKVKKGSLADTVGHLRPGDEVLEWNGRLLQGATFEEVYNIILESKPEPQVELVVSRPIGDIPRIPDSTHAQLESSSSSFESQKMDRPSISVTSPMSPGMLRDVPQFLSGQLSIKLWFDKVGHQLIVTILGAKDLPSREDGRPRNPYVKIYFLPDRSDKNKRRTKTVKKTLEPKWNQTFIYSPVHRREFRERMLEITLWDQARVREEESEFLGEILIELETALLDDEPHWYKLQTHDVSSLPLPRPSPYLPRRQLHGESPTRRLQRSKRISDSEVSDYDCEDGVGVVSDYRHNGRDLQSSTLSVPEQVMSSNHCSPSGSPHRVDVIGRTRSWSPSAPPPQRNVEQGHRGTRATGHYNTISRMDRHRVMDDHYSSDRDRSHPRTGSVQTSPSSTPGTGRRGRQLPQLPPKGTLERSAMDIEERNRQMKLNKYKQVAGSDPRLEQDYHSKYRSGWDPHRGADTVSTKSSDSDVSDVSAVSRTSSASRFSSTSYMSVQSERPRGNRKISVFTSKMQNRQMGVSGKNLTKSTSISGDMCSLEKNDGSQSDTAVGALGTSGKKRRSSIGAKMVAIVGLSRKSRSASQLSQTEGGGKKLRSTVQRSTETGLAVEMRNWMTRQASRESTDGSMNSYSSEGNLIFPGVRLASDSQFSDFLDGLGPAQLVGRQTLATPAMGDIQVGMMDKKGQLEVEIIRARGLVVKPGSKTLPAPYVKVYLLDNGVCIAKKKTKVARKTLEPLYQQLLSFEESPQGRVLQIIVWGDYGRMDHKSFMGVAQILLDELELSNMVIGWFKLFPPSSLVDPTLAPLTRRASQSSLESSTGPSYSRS
UniProt Q80U72: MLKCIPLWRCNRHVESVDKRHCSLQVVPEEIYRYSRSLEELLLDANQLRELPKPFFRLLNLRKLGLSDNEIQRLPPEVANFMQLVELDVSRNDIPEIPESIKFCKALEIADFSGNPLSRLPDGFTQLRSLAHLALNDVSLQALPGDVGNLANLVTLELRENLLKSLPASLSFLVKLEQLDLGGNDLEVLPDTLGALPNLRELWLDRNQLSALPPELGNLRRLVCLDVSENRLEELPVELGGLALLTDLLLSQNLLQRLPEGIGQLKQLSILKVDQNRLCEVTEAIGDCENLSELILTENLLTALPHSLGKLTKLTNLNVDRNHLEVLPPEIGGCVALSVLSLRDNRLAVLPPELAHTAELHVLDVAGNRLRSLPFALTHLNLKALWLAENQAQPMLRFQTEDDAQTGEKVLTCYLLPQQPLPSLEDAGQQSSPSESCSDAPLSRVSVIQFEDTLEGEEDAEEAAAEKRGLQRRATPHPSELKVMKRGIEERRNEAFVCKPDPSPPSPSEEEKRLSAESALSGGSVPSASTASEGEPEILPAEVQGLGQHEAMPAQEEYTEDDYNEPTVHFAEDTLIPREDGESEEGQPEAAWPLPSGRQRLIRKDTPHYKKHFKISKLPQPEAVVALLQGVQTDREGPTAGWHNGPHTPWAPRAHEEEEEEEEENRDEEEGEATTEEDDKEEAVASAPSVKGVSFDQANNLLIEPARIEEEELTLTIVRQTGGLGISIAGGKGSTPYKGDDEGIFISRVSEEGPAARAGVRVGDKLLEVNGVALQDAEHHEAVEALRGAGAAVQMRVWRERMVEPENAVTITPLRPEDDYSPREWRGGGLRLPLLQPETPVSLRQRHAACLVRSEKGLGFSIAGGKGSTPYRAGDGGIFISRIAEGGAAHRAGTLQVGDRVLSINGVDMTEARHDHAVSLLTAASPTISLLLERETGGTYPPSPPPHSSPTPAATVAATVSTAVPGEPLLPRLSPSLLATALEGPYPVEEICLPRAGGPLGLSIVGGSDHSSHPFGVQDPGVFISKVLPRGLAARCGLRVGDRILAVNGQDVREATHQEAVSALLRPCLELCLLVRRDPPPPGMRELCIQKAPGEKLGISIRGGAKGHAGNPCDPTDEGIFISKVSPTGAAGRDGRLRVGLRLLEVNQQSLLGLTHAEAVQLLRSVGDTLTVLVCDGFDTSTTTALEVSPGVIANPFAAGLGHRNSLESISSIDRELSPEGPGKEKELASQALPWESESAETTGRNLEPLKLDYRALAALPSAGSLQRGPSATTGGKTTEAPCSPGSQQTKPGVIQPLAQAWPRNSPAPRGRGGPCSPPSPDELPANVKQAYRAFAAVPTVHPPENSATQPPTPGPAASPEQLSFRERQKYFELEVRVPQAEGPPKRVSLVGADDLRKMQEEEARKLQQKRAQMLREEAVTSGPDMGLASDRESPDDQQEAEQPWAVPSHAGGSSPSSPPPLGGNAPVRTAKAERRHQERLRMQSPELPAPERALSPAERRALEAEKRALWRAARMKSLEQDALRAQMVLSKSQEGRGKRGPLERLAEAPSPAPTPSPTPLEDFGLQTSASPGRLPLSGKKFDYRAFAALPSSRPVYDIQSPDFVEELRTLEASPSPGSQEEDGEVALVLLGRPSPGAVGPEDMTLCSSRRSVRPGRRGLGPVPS

In test [2] the target is T2, HA-tagged wild-type Claudin-2 (mouse) (mouse) (UniProt O88552).
T2 sequence: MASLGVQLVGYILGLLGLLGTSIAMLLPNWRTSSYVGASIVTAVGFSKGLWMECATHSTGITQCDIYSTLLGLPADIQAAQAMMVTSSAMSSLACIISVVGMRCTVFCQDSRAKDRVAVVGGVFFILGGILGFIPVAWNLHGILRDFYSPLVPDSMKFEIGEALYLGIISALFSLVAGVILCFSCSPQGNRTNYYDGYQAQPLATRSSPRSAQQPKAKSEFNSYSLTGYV
The test is described as above.

These are yes or no findings as the source states them, for the method shown. In cells and extracts the contact can be indirect. Here binding means that the protein was enriched with, or labelled near, the bait; the list need not be complete. For part of these data: No binding means not detected with the bait. Where a sequence is shown, tags or fusion partners need not be part of it.

With “Afadin (mouse, endogenous in 2776 cells) (from UniProt Q9QZQ1 1-1820)”, the binding result in test [1] is recorded as “no binding”; in test [2], “binds”.
For Arhgap21 (from UniProt Q6DFV3 1-1945) the same measures were “no binding” and “binds”.
Consider Pdlim7 (from UniProt Q3TJD7 1-457), for which the results for the binding result in test [1] and in test [2] were “no binding” and “binds”, respectively.
The like results for Rims2 (from UniProt Q9EQZ7 1-1530) were, in that order, “no binding” and “binds”.
In the case of Scrib (from UniProt Q80U72 1-1665), the values for the binding entry in test [1] and in test [2] were “no binding” and “binds”, respectively.

B1: Pdlim2 (protein, UniProt Q8R1G6 1-349)
chain: MALTVDVAGPAPWGFRISGGRDFHTPIIVTKVTERGKAEAADLRPGDIIVAINGQSAENMLHAEAQSKIRQSASPLRLQLDRSQTASPGQTNGEGSLEVLATRFQGSLRTHRDSQSSQRSACFSPVSLSPRPCSPFSTPPPTSPVALSKEDMIGCSFQSLTHSPGLAAAHHLTYPGHPTSQQAGHSSPSDSAVRVLLHSPGRPSSPRFSSLDLEEDSEVFKMLQENRQGRAAPRQSSSFRLLQEALEAEERGGTPAFVPSSLSSQASLPTSRALATPPKLHTCEKCSVNISNQAVRIQEGRYRHPGCYTCADCGLNLKMRGHFWVGNELYCEKHARQRYSMPGTLNSRA
Take B1: the binding entry in test [1] is recorded as “no binding”; in test [2], “binds”.

For the origin of these results see publication PMC6362814.
